Reference: PMC4201086
Results are given in words; binding and its absence hold for the method and conditions named. In cells and extracts the contact can be indirect. Some entries that bind do so weakly or less than the wild type.

Molecular target: Dual specificity tyrosine-phosphorylation-regulated kinase 1A (DYRK1A), endogenous, mouse brain (mouse (endogenous in adult mouse brain)) (UniProt Q61214)
Test: co-IP; anti-DYRK1A mAb, protein G-Sepharose; membrane-associated fraction of adult mouse brain solubilized in 10 mM HEPES pH 7.4, 150 mM NaCl, 1 mM EDTA, 0.1 mM MgCl2, 1% NP-40; overnight 4°C; Western blot with anti-GluN2A; mouse IgG as control

Substance: NMDA receptor subunit GluN2A, endogenous, mouse brain (from UniProt P35436 23-1464)
- binding: binds
